The assay has as its target human GPRC5D (human) (UniProt Q9NZD1). The assay is described as follows: cell ELISA, CHO cells stably expressing human GPRC5D. Background: An ELISA detects its analyte on a solid surface through an enzyme-linked reagent.

Protein sequences, listed by entry. Tags and fused reporters are not part of them. Lines headed by an entry give the natural chain unless they say otherwise; changes in a name come on top.
UniProt Q9NZD1: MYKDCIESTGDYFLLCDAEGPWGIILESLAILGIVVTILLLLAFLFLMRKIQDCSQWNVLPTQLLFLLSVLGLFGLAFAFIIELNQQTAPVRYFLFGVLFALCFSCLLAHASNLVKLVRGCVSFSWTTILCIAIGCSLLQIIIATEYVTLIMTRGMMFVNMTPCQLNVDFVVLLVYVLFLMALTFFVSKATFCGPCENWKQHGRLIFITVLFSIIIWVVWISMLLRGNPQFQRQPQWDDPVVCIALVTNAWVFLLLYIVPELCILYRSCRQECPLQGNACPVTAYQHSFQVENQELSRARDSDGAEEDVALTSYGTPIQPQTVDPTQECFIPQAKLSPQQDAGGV

The text below walks through data of US20220259318A1.

Results are given in words; binding and its absence hold for the method and conditions named. Some entries that bind do so weakly or less than the wild type.

B1: 07A04 IgG (antibody, V domains shown)
VH: QVTLKESGPGILQPSHTLSLTCSFSGFSLSTYGMGVNWIRQPSGKGLEWLASIWWNGNTYNNPSLKSRLTVSKDTSNNQAFLKVTSVDTADTATYYCVHTRGIIRGRGLFFDYWGQGVMVTVSS
VL: DVQMTQSPYNLAASPGESVSINCKASKSISKYLAWYQQKPGKANKLLIYDGSTLQSGIPSRFSGSGSGTDFTLTIRSLEPEDFGLYYCQQHNEYPLTFGSGTKLEIKR
On to B1, for which the binding result is “binds”.
